Test results taken from patent US10981940B2, “Trityl protecting agent” (SEKISUI MEDICAL CO., LTD., priority 2016, dated 2021).
The name of at least one read-out is uncertain.

Assay: Solubility in CPME (cyclopentyl methyl ether), dissolved to saturation at 25° C.
Type: physicochemical
Details: CPME at 25° C.
Experimental: Peptide used as a model: H-Phe-Leu-Gly-OH
H-Phe-Leu-Gly-OH and H-Phe-Leu-Gly-O-(TIPS2-4,4′-diClTrt) were synthesized, and the respective compounds were dissolved to saturation in CPME (cyclopentyl methyl ether) at 25° C. Thus, the solubilities were measured.

CC(C)C[C@H](NC(=O)[C@@H](N)Cc1ccccc1)C(=O)NCC(=O)OC(c1ccc(Cl)cc1)(c1ccc(Cl)cc1)c1cc(OCCCCCCCCCCCO[Si](C(C)C)(C(C)C)C(C)C)cc(OCCCCCCCCCCCO[Si](C(C)C)(C(C)C)C(C)C)c1 [H-Phe-Leu-Gly-O-(TIPS2-4,4′-diClTrt)]
solubility increase compared to H-Phe-Leu-Gly-OH without trityl protecting agent: ≥ 1,100 times
